Source: article PMC2841637
Results are given in words; binding and its absence hold for the method and conditions named. In cells and extracts the contact can be indirect. Binding calls can cover weak binding; strength is not graded here. Tags and fused reporters may be left off the sequences shown.

Molecular target: T1, GST-tagged Tiam1 (720-841), Ras-binding domain (UniProt Q60610)
T1 sequence: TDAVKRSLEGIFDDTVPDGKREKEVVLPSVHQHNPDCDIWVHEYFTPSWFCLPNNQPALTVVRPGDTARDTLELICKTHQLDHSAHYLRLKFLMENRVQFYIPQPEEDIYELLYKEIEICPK
Experiment: pull-down; GST-Tiam1 (720-841) on lysates of PC12 cells treated or not with NGF for different times; immunoblot with anti-Ras; only the target purified

Q: How did the binding turn out when “Ras, endogenous (rat (endogenous in PC12))” was run?
A: binds
